Reference: PubChem BioAssay AID540276 (National Center for Advancing Translational Sciences (NCATS), 2011)
Out of some 300,000 compounds screened, about 5,400 (1.8%) were called active. The inconclusive results got no clear call from the source; some entries with a clear call stand among them for comparison. Calls come from the whole dose curve; tested in HEK293 cells. Potencies of inconclusive entries are doubtful fits and often do not repeat.

Assay: qHTS for inhibitors of binding or entry into cells for Marburg Virus
Conditions: Marburg virus pseudotyped entry inhibition, cell reporter; series mostly up to 37.8 µM
Potency is the fitted concentration of half-maximal effect.

| Structure (SMILES) | Potency |
| --- | --- |
| COC(=O)Cc1csc(Nc2ccccc2Cl)n1 | inconclusive: 6.31 µM [activator, single point] |
| COc1ccc(C)cc1COC(=O)c1[nH]c(C)c(C(C)=O)c1C | inconclusive: 5.62 µM [inhibitor, full curve] |
| COC(=O)C(O)(c1ccc(NC(=S)NC(=O)c2ccc(Cl)cc2Cl)c(C)c1)C(F)(F)F (stereo not given) | inconclusive: 10 µM [inhibitor, partial curve, poor fit] |
| Cn1c(=O)[nH]c(=O)c2c1nc(N1CCOCC1)n2CC(O)COc1ccc2ccccc2c1 (stereo not given) | inconclusive: 10 µM [inhibitor, partial curve, poor fit] |
| CC(C)c1ccc(NC(=O)C(=O)c2cn(CC(=O)N3CCCCC3)c3ccccc23)cc1 | inconclusive: 3.55 µM [inhibitor, partial curve, poor fit] |
| O=C(CN1CCCCC1)Nc1ccc(S(=O)(=O)c2ccc(NC(=O)CN3CCCCC3)cc2)cc1 | inconclusive: 5.62 µM [inhibitor, single point] |
| Cn1c(=O)c2c(nc(Br)n2Cc2ccccc2Cl)n(C)c1=O | inconclusive: 0.355 µM [activator, partial curve, poor fit] |
| O=C1c2ccccc2CCc2ccccc21 | inactive |
| Brc1ccc(C2=Nc3ccccc3C(c3ccncc3)=NN2)cc1 | inactive |
| COc1ccc(CC(=O)NCc2n[nH]c(=S)n2-c2ccc(Br)cc2)cc1 | inconclusive: 5.62 µM [inhibitor, single point] |
| C=C(C)CNC(=S)N/N=C/c1ccco1 | inconclusive: 6.31 µM [activator, partial curve, poor fit] |
| CC/C(=N/NC(=O)CCC(=O)Nc1ccccc1OC)c1ccccc1 | inconclusive: 18.4 µM [inhibitor, single point] |
| Cc1ccc(S(=O)(=O)NCC2CCCO2)cc1[N+](=O)[O-] (stereo not given) | inconclusive: 5.62 µM [activator, single point] |
| COc1ccc(-c2ccc(-c3noc(-c4ccccc4F)n3)c(OC)n2)cc1 | inconclusive: 1.12 µM [activator, partial curve, poor fit] |
| S=c1[nH]ccn1CCc1ccccc1 | inconclusive: 6.31 µM [activator, single point] |
| CCCCCCC(O)(CCN1CCCCC1)c1ccccc1 (stereo not given) | active: 12.6 µM |
| NC(=O)C[n+]1cccc(C(N)=O)c1 | inconclusive: 6.31 µM [activator, single point] |
| Cc1ccc(S(=O)(=O)N2CCC(C(=O)OCC(=O)N3CC(C)CC(C)C3)CC2)cc1C (stereo not given) | inconclusive: 12.6 µM [activator, single point] |
| CC1(c2ccc(OCC(N)=O)cc2)NC(=O)NC1=O (stereo not given) | inconclusive: 6.31 µM [inhibitor, partial curve, poor fit] |
| CC(=O)N1CCCC1(C(=O)O)c1ccccc1 (stereo not given) | inactive |
| CCN(CC)C(=O)CSc1nc2ccc(NC(=O)CSc3nccn3C)cc2s1 | inconclusive: 0.092 µM [inhibitor, full curve, poor fit] |
| COc1ccc(CNc2ccc3c(c2)ncn3-c2ccccc2OC)cc1 | inconclusive: 8.2 µM [inhibitor, partial curve, poor fit] |

Given comma-delimited: entries from further up.
Structure (SMILES),Potency
Cn1c(=O)c2c(nc(Br)n2Cc2ccccc2Cl)n(C)c1=O,"inconclusive: 0.355 µM [activator, partial curve, poor fit]"
O=C1c2ccccc2CCc2ccccc21,inactive
Brc1ccc(C2=Nc3ccccc3C(c3ccncc3)=NN2)cc1,inactive
COc1ccc(CC(=O)NCc2n[nH]c(=S)n2-c2ccc(Br)cc2)cc1,"inconclusive: 5.62 µM [inhibitor, single point]"
C=C(C)CNC(=S)N/N=C/c1ccco1,"inconclusive: 6.31 µM [activator, partial curve, poor fit]"

Going on with the list:

| Structure (SMILES) | Potency |
| --- | --- |
| CCOC(=O)C1=Nc2ccccc2C1=[N+]=[N-] | inconclusive: 3.55 µM [inhibitor, full curve, poor fit] |
| COc1ccc(C)cc1NS(=O)(=O)c1ccc(Br)s1 | inconclusive: 0.0052 µM [inhibitor, full curve, poor fit] |
| COc1ccccc1C(=O)N/C(=C\c1ccccc1)C(=O)NC(C)C(=O)O (stereo not given) | inactive |
| CC1(C)c2ccccc2N(CC(N)=O)C12C=Cc1ccccc1O2 (stereo not given) | inconclusive: 15.8 µM [inhibitor, single point] |
| CCOc1ncccc1C(=O)OCC(=O)Nc1ccc2c(c1)CCC2 | inactive |
| O=C(O)c1cc(N/N=C/C(Cl)=C/c2ccccc2)ccc1Cl | inconclusive: 3.98 µM [inhibitor, partial curve, poor fit] |
| CCOc1ccc(OCCSc2nc(C)cc(=O)[nH]2)cc1 | inconclusive: 0.891 µM [activator, partial curve] |
| Cc1nnc(SCC(=O)N2CC(=O)Nc3ccccc32)n1Cc1ccccc1 | inconclusive: 0.562 µM [inhibitor, full curve, poor fit] |
| COCCN(CCOC)C(=O)N1CCOCC1 | inconclusive: 3.16 µM [activator, single point] |
| O=C(Nn1c(-c2ccccc2)nc2ccccc2c1=O)c1ccc([N+](=O)[O-])cc1 | inconclusive: 10 µM [activator, partial curve, poor fit] |
| CCN(CC)S(=O)(=O)c1cccc(NC(=O)c2ccc(-n3nc(C)cc3C)cc2)c1 | active: 15.8 µM |
| CC(=O)/C(=N/Nc1ccc(C)cc1)Sc1nnc(CCc2ccccc2)n1-c1ccccc1 | inconclusive: 7.08 µM [inhibitor, partial curve, poor fit] |
| CCOc1cccc(C(=O)Nc2cnn(Cc3ccccc3)c2)c1 | inconclusive: 11.2 µM [inhibitor, partial curve, poor fit] |
| CC(C)/C=N/Nc1nc(-c2ccc(Br)cc2)cs1 | inconclusive: 1.12 µM [activator, full curve, poor fit] |
| CC(C)Cc1ccc(CN2CCCC(NC(=O)c3cnc4ccccn4c3=O)C2)cc1 (stereo not given) | inactive |
| Cc1cc(C)c(C#N)c(SCc2[nH]nc3c2C(c2ccccc2)C(C#N)=C(N)O3)n1 (stereo not given) | inconclusive: 7.3 µM [inhibitor, partial curve] |
| Cc1ccc(OCC(=O)NC2CCCC2)c(C)c1 | inconclusive: 0.708 µM [activator, single point] |
| Cc1cc(C)c2c(n1)sc1c(-c3ccccc3)c(C#N)c(N)nc12 | inconclusive: 0.1 µM [activator, full curve, poor fit] |
| CCc1cc(-c2n[nH]c(C)c2Oc2ccc(C(C)C)cc2)c(O)cc1O | inconclusive: 20.6 µM [inhibitor, single point] |
| CCC(=O)Nc1ccc(/C(C)=N\NC(=O)c2ccc(C)s2)cc1 | inconclusive: 12.6 µM [activator, single point] |
| O=C(C1CCCN(Cc2cccnc2)C1)N1CCCCC1 (stereo not given) | inactive |
| O=C(NCCNc1ccc([N+](=O)[O-])cc1)c1cccc(Br)c1 | inactive |

Two entries drawn at random from those above:

| Structure (SMILES) | Potency |
| --- | --- |
| COc1ccc(CC(=O)NCc2n[nH]c(=S)n2-c2ccc(Br)cc2)cc1 | inconclusive: 5.62 µM [inhibitor, single point] |
| CCN(CC)C(=O)CSc1nc2ccc(NC(=O)CSc3nccn3C)cc2s1 | inconclusive: 0.092 µM [inhibitor, full curve, poor fit] |

The list goes on.

| Structure (SMILES) | Potency |
| --- | --- |
| O=C(Cn1cc(COc2ccc(C(=O)c3ccccc3)cc2)nn1)c1ccc(O)cc1 | inconclusive: 0.0887 µM [activator, full curve, poor fit] |
| CCOc1ccc(C(=O)NC(=S)Nc2ccccc2N2CCOCC2)cc1Br | inconclusive: 15.8 µM [inhibitor, partial curve, poor fit] |
| CC1(c2ccc(OC(F)F)cc2)NC(=O)N(CC(=O)Nc2cccc(F)c2)C1=O (stereo not given) | inconclusive: 35.5 µM [inhibitor, single point] |
| Cc1cc(C)c2oc(-c3ccc(Cl)c(NC(=O)c4cccs4)c3)nc2c1 | inconclusive: 0.708 µM [activator, partial curve, poor fit] |
| O=S(=O)(NCc1ccc(Cl)cc1Cl)c1ccc(N2CCOCC2)nc1 | inconclusive: 3.16 µM [activator, single point] |
| COc1ccc(Cl)cc1N(C(=O)c1ccco1)C(C(=O)NC1CCCC1)c1ccco1 (stereo not given) | inconclusive: 35.5 µM [inhibitor, single point] |
| COc1cc(/C=C2/SC(=S)NC2=O)ccc1OS(=O)(=O)c1ccc(C)cc1 | inconclusive: 5.62 µM [inhibitor, single point] |
| N/C(=N\OS(=O)(=O)c1ccccc1)c1ccccn1 | inconclusive: 22.4 µM [activator, single point] |
| CN(C)/C=N/c1ncc(C(=O)c2ccc(Cl)cc2)s1 | inactive |
| COc1ccc(S(=O)(=O)N2CCCCCC2)cc1NC(=O)CN1C(=O)CNC1=O | inactive |
| O=C(CSc1nnc(CNC(=O)c2cccs2)o1)Nc1cccc(Cl)c1 | inconclusive: 5.62 µM [activator, single point] |
| Cc1cc2c(cc1C)N(C(=O)CSc1nncn1C)C(C)(C)c1ssc(=S)c1-2 | inconclusive: 10.3 µM [inhibitor, partial curve, poor fit] |
| CCCSc1nc(-c2ccccc2)[nH]c1S(=O)(=O)c1ccc(C)cc1 | inconclusive: 25.1 µM [inhibitor, single point] |
| COc1ccc(N2CCN(C(=O)NC34CC5CC(CC(C5)C3)C4)CC2)cc1 | inactive |
| Nc1ccc2c(c1)OC1(CCCC1)O2 | inconclusive: 2 µM [inhibitor, full curve, poor fit] |
| CCC(C)N(C(=O)COc1ccccc1C#N)C1CCS(=O)(=O)C1 (stereo not given) | inconclusive: 0.282 µM [activator, partial curve, poor fit] |
| O=C(COc1ccc(-c2nnc(N3CCCCC3)c3ccccc23)cc1)N1CCCCC1 | inconclusive: 35.5 µM [inhibitor, partial curve, poor fit] |
| CCCCCn1c(CCNC(=O)c2cccc(C)c2)nc2ccccc21 | inconclusive: 35.5 µM [inhibitor, partial curve, poor fit] |
| COc1ccc(-c2csc(NC(=O)CS(=O)(=O)c3ccc(F)cc3)n2)cc1OC | inconclusive: 14.1 µM [inhibitor, single point] |
| Cc1sc(NC(=O)c2ccco2)c(CN2CCN(Cc3ccccc3)CC2)c1C | active: 12.6 µM |
| CCC(CC)C(=O)Nc1cccc(C(=O)Nc2nccs2)c1 | inactive |
